No constants are given. Whether binding was seen depends on the method and setting. Binding calls can cover weak binding; strength is not graded here.
Target: T1, MFAP-1 (C. elegans microfibrillar-associated protein 1) (C. elegans) (UniProt Q93712)
T1 sequence: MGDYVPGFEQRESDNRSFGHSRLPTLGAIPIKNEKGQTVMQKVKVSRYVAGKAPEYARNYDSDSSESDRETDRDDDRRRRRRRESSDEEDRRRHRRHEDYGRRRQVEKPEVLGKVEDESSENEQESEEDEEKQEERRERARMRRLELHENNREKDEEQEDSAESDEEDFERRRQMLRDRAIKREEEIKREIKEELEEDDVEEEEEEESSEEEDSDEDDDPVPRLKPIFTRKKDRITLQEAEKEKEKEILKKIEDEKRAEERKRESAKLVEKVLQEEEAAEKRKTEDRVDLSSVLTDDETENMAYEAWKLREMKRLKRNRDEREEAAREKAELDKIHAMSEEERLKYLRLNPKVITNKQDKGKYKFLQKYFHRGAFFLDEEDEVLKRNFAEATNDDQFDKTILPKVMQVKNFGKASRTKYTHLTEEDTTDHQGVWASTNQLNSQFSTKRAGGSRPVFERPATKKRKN
Experiment: two-hybrid; screen: bait full-length MFAP-1 in pGBK T7, preys from a pACT2.2 C. elegans library, S. cerevisiae PJ69-4A, growth on SD-Leu-Trp-His with 5 mM 3-AT; clones isolated, retested, and no survival with the pGBK T7 empty vector

T22H9.1 (protein involved in rRNA processing) (C. elegans)
binding: binds

Source: publication PMC3400559
